# Where a name gives a salt, the structure may show the parent alone. The list shows a part of the results. The calls rarely recur for the same compound in another form.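 Kinases were expressed as nanoluciferase fusions in K562 cells and luminescence was read every 4 h between 2 and 18 h as percent of control, DMSO set to 100% and a positive control to 0%. A time point counts as decreased when the signal drops significantly (2 sigma). The hit call is the authors' own, does not follow from the count of time points alone, and its rule is not shown.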
# Protein sequences, listed by entry. Tags and fused reporters are not part of them. Lines headed by an entry give the natural chain unless they say otherwise; changes in a name come on top.
# UniProt Q15208: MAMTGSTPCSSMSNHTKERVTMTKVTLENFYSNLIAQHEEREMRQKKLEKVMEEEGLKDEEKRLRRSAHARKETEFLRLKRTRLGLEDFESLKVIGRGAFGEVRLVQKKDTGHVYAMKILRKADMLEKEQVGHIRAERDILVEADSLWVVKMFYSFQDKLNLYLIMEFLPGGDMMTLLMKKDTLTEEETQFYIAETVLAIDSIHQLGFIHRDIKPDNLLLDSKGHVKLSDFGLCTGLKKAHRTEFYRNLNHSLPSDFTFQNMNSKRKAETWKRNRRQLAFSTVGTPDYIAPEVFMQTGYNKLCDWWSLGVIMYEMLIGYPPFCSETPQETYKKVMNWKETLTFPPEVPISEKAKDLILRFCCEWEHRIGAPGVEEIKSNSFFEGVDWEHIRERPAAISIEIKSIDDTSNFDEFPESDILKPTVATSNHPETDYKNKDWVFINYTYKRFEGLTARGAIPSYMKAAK
# UniProt P42680: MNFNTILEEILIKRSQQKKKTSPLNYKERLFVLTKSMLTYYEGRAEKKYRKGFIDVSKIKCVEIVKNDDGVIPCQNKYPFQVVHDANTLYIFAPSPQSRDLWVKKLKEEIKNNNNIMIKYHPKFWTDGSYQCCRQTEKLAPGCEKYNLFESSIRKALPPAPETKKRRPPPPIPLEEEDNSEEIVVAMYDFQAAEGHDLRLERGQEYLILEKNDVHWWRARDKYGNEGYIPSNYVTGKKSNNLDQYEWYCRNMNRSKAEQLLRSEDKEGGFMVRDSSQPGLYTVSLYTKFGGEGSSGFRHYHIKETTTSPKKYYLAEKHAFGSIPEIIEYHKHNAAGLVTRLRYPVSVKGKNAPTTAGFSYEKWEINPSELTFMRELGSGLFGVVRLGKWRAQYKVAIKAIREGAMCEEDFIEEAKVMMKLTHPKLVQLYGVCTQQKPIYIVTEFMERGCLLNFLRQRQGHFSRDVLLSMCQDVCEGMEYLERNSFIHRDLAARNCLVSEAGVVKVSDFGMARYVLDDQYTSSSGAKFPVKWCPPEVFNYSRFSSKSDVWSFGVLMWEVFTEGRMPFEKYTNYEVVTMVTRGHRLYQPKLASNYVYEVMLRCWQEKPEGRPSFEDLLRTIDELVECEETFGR
# UniProt P29597: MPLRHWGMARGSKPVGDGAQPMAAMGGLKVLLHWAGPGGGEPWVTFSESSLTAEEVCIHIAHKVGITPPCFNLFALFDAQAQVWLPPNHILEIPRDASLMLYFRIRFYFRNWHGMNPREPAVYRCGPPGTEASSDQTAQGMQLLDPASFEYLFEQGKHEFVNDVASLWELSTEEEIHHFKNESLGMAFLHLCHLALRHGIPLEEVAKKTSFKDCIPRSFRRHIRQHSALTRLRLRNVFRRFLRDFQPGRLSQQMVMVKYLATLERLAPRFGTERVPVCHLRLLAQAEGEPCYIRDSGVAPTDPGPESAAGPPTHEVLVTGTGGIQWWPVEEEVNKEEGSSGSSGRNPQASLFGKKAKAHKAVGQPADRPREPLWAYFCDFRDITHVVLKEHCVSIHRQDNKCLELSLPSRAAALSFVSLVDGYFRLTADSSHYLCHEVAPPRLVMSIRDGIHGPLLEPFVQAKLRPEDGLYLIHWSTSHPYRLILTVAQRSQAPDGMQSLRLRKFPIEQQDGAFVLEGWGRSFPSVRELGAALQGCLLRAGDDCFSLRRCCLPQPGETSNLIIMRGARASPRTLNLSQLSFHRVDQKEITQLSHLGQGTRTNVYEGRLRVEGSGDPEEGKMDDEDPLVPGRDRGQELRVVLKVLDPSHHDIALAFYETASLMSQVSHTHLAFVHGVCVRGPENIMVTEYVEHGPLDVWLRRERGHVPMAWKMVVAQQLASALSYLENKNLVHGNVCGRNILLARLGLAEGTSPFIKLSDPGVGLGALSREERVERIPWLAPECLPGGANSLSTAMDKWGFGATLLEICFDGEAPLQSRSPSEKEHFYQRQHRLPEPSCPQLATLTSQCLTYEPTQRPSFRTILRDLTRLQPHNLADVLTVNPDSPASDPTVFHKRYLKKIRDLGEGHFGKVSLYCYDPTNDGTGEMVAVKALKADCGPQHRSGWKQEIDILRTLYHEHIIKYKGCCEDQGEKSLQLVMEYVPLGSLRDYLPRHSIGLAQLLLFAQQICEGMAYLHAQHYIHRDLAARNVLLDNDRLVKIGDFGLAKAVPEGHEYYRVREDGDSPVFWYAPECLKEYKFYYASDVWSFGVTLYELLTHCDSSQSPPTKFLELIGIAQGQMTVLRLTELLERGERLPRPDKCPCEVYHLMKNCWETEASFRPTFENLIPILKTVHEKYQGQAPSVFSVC
# UniProt Q6PHR2: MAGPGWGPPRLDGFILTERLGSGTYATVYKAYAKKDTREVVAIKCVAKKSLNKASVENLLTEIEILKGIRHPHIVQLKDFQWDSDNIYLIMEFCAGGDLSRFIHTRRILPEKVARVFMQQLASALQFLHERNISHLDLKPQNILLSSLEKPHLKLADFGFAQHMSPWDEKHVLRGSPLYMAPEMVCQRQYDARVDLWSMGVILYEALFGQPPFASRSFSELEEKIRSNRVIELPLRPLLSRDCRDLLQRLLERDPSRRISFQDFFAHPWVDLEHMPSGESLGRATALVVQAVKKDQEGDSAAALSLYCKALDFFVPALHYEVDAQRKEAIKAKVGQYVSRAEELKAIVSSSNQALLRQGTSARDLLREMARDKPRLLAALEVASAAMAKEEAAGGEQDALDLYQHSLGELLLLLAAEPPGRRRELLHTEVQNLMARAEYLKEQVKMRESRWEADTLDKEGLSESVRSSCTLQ
# UniProt P07947, whole entry, looked up: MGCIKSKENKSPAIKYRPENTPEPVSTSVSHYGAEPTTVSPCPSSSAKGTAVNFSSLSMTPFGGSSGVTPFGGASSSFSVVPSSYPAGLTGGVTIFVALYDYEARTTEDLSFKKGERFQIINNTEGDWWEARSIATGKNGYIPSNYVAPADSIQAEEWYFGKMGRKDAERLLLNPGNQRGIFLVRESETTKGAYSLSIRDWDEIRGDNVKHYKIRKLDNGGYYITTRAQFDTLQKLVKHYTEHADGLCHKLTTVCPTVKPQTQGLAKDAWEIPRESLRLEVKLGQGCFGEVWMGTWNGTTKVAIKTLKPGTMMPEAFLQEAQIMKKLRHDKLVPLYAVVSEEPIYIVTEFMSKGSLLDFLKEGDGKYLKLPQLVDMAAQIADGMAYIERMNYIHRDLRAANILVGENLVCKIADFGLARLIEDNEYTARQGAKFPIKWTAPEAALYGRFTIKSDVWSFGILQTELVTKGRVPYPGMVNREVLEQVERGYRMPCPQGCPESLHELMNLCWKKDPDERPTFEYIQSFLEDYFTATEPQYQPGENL
# UniProt P43403: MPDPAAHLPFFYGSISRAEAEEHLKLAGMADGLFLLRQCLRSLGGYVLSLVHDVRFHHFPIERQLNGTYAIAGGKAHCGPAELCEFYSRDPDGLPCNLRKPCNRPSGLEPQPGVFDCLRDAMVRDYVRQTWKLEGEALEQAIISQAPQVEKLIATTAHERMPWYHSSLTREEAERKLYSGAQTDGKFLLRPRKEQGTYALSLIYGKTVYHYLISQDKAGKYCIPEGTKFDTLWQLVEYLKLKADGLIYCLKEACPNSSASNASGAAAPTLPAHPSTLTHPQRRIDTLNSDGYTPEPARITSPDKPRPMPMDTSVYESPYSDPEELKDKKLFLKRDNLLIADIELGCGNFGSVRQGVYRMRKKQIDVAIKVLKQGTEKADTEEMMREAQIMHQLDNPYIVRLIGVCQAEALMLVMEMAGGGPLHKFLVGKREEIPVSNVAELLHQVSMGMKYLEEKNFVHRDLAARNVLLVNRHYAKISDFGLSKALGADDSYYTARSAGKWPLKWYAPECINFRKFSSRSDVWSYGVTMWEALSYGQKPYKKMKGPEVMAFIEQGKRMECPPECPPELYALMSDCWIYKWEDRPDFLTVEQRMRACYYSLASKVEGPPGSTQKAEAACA
# UniProt P00519, whole entry: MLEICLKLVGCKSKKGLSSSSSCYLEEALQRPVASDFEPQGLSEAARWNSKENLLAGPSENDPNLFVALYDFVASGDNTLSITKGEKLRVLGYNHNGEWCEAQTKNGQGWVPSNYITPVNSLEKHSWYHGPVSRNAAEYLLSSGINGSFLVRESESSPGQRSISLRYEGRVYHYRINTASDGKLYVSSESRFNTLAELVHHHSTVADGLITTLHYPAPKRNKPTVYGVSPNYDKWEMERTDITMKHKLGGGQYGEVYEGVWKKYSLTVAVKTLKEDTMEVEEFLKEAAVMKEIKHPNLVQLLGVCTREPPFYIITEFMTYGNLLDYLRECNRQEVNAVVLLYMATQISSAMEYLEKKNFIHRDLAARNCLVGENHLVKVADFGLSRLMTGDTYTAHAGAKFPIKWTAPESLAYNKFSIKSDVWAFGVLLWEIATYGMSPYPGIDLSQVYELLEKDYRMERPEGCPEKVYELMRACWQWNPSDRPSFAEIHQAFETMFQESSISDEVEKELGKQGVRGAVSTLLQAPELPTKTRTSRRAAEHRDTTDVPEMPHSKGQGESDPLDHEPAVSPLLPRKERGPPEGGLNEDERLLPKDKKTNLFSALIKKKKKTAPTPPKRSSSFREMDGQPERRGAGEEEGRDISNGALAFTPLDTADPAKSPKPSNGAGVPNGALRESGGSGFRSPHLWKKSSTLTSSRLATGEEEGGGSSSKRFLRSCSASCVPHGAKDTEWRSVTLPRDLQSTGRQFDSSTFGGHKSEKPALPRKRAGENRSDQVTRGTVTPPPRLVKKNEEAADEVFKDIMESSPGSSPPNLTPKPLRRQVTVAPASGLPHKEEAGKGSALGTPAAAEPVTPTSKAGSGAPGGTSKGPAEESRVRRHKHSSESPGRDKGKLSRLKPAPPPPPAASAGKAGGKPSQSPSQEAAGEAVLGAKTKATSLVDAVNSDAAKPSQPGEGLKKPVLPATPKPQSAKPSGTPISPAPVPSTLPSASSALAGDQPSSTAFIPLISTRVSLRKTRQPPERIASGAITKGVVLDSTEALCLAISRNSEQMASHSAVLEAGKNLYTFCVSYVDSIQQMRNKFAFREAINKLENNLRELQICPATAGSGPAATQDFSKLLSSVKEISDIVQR
# UniProt P31749: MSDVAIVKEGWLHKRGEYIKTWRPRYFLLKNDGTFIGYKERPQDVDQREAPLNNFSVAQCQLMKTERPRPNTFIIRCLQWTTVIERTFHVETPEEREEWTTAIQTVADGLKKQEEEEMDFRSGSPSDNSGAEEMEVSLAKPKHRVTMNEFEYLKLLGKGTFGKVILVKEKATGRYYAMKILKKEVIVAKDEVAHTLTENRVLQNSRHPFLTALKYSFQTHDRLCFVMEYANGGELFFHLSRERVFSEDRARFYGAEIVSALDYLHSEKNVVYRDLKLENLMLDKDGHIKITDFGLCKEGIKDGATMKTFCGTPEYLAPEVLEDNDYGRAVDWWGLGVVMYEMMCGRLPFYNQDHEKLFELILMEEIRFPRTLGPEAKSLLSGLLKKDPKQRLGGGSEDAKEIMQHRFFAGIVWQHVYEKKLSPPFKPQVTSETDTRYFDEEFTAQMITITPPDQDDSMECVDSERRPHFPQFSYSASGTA
# Experiments:
# Settings in all cases: K562; 2-18 h
# STK38 = STK38 (UniProt Q15208); assay: kinase-Nluc reporter destabilization hit call (1 = scored as downregulated) (binary); higher = compound decreases kinase abundance
# SYK = SYK (UniProt P43405); assay: as above
# TEC = TEC (UniProt P42680); assay: as above
# TYK2 = TYK2 (UniProt P29597); assay: as above
# ULK3 = ULK3 (UniProt Q6PHR2); assay: as above
# YES1 = YES1 (UniProt P07947); assay: as above
# ZAK = ZAK (UniProt Q9NYL2); assay: as above
# ZAP70 = ZAP70 (UniProt P43403); assay: as above
# ABL1 = ABL1 (UniProt P00519); assay: number of time points (of 5) at which kinase-Nluc abundance scored as decreased, DMSO-normalised (count); higher = more persistent destabilization
# AKT1 = AKT1 (UniProt P31749); assay: as above
Structure (SMILES),kinase-Nluc reporter destabilization hit call (STK38),kinase-Nluc reporter destabilization hit call (SYK),kinase-Nluc reporter destabilization hit call (TEC),kinase-Nluc reporter destabilization hit call (TYK2),kinase-Nluc reporter destabilization hit call (ULK3),kinase-Nluc reporter destabilization hit call (YES1),kinase-Nluc reporter destabilization hit call (ZAK),kinase-Nluc reporter destabilization hit call (ZAP70),number of time points (ABL1),number of time points (AKT1)
O=C(Nc1ccc(Cl)cc1)C1CCCN(C(=O)c2cccc(-c3ccco3)c2)C1 (stereo not given) (2.5 µM),inactive: 0,inactive: 0,inactive: 0,inactive: 0,inactive: 0,inactive: 0,inactive: 0,inactive: 0,0,0
COc1cc(-c2cc(-c3cc(OC)c(OC)c(OC)c3)cc(C(F)P(=O)(OCOC(=O)C(C)(C)C)OCOC(=O)C(C)(C)C)c2)cc(OC)c1OC (stereo not given) [Stafia-1-dipivaloyloxymethyl ester] (2.5 µM),inactive: 0,inactive: 0,inactive: 0,inactive: 0,inactive: 0,inactive: 0,inactive: 0,inactive: 0,1,0
CCN1/C(=C/C(C)=O)Sc2ccc(OC)cc21 (10 µM),inactive: 0,inactive: 0,inactive: 0,inactive: 0,inactive: 0,inactive: 0,inactive: 0,inactive: 0,2,0
Nc1cc(C(F)(F)F)c(-c2nc(N3CCOCC3)nc(N3CCOCC3)n2)cn1 [Bimiralisib] (10 µM),inactive: 0,inactive: 0,inactive: 0,inactive: 0,inactive: 0,inactive: 0,inactive: 0,inactive: 0,4,0
COc1cc(N2CCC(N3CCN(C)CC3)CC2)ccc1Nc1nc2c(c(Nc3ccccc3S(=O)(=O)NC(C)C)n1)CCN2 [Conteltinib] (10 µM),inactive: 0,inactive: 0,inactive: 0,inactive: 0,inactive: 0,inactive: 0,inactive: 0,inactive: 0,0,0
COc1ccc2c(=O)c(-c3ccccc3)coc2c1 [7-Methoxyisoflavone] (10 µM),inactive: 0,inactive: 0,inactive: 0,inactive: 0,inactive: 0,inactive: 0,inactive: 0,inactive: 0,3,0
C[C@H]1Cc2ccccc2N1C(=O)Cc1nc(N2CCOCC2)cc(=O)[nH]1 (2.5 µM),inactive: 0,inactive: 0,inactive: 0,inactive: 0,inactive: 0,inactive: 0,inactive: 0,inactive: 0,0,0
CCc1c(C)sc(NC(=S)NC(=O)c2ccc(Cl)cc2)c1C(N)=O (10 µM),inactive: 0,inactive: 0,inactive: 0,inactive: 0,inactive: 0,inactive: 0,inactive: 0,inactive: 0,0,0
COc1c(C)c(C(=O)c2ccc(N)c(C(=O)O)c2)n2ccccc12 (10 µM),inactive: 0,inactive: 0,inactive: 0,inactive: 0,inactive: 0,inactive: 0,inactive: 0,inactive: 0,0,0
CC(C)(C)Cn1c(N)nc2ccc(-c3[nH]c(C(C)(C)C)nc3-c3ccc(F)cc3)nc21 [Ralimetinib dimesylate] (2.5 µM),inactive: 0,inactive: 0,inactive: 0,inactive: 0,inactive: 0,inactive: 0,inactive: 0,inactive: 0,0,0
"CN1CC[C@H](c2c(O)cc(O)c3c(=O)cc(-c4ccc(C(F)(F)F)cc4Cl)oc23)[C@H]1CO [(2S,3R)-Voruciclib (hydrochloride)] (2.5 µM)",inactive: 0,inactive: 0,inactive: 0,inactive: 0,inactive: 0,inactive: 0,inactive: 0,inactive: 0,0,0
COc1cnccc1Nc1nc(-c2nn(Cc3c(F)cc(OCCO)cc3F)c3ccccc23)ncc1OC (10 µM),inactive: 0,inactive: 0,inactive: 0,inactive: 0,inactive: 0,inactive: 0,inactive: 0,inactive: 0,0,0
Nc1nc2cc(-c3ccc4ncc(C(=O)N5CCOCC5)n4c3)ccc2o1 [Serabelisib] (10 µM),inactive: 0,inactive: 0,inactive: 0,inactive: 0,inactive: 0,inactive: 0,inactive: 0,inactive: 0,0,0
O=C(Nc1ccc(Cl)c(Cl)c1)Nc1ccc2nnsc2c1 (10 µM),inactive: 0,inactive: 0,inactive: 0,inactive: 0,inactive: 0,inactive: 0,inactive: 0,inactive: 0,0,0
COc1nc(-c2ccnc(NC(=O)C3CC3)c2)sc1C(N)=O [GSK-3β inhibitor 2] (10 µM),inactive: 0,inactive: 0,inactive: 0,inactive: 0,inactive: 0,inactive: 0,inactive: 0,inactive: 0,0,0
O=C(O)c1ccccc1Nc1cccc(C(F)(F)F)c1 [Flufenamic acid] (10 µM),inactive: 0,inactive: 0,inactive: 0,inactive: 0,inactive: 0,inactive: 0,inactive: 0,inactive: 0,0,0
O=c1ccc2ccc(O)c(O)c2o1 [Daphnetin] (10 µM),inactive: 0,inactive: 0,inactive: 0,inactive: 0,inactive: 0,inactive: 0,inactive: 0,inactive: 0,0,0

Structure (SMILES),kinase-Nluc reporter destabilization hit call (STK38),kinase-Nluc reporter destabilization hit call (SYK),kinase-Nluc reporter destabilization hit call (TEC),kinase-Nluc reporter destabilization hit call (TYK2),kinase-Nluc reporter destabilization hit call (ULK3),kinase-Nluc reporter destabilization hit call (YES1),kinase-Nluc reporter destabilization hit call (ZAK),kinase-Nluc reporter destabilization hit call (ZAP70),number of time points (ABL1),number of time points (AKT1)
O=c1ccoc2cc(O)ccc12 [7-Hydroxy-4H-chromen-4-one] (10 µM),inactive: 0,inactive: 0,inactive: 0,inactive: 0,inactive: 0,inactive: 0,inactive: 0,inactive: 0,0,0
Nc1cccc(S(=O)(=O)N2CCCN(S(=O)(=O)c3ccc4c(c3)OCCO4)CC2)c1 (10 µM),inactive: 0,inactive: 0,inactive: 0,inactive: 0,inactive: 0,inactive: 0,inactive: 0,inactive: 0,0,0
OCCN(CCO)c1ccc(C(c2ccc(Cl)cc2)c2ccc(N(CCO)CCO)cc2)cc1 (10 µM),inactive: 0,inactive: 0,inactive: 0,inactive: 0,inactive: 0,inactive: 0,inactive: 0,inactive: 0,0,0
CSc1ccc(CN2CCCC(Nc3ccc4[nH]ncc4c3)C2)cc1 (stereo not given) [Rho-Kinase-IN-1] (10 µM),inactive: 0,inactive: 0,inactive: 0,inactive: 0,inactive: 0,inactive: 0,inactive: 0,inactive: 0,0,0
N#C/C(=C(/N)Sc1ccc(N)cc1)c1ccccc1C(F)(F)F (10 µM),inactive: 0,inactive: 0,inactive: 0,inactive: 0,inactive: 0,inactive: 0,inactive: 0,inactive: 0,0,0
Cn1cc(-c2cc3c(N4CCN(c5ncc([C@@](C)(N)c6ccc(F)cc6)cn5)CC4)ncnn3c2)cn1 [Avapritinib] (2.5 µM),inactive: 0,inactive: 0,inactive: 0,inactive: 0,inactive: 0,inactive: 0,inactive: 0,inactive: 0,0,0
[O-][n+]1cccc(-c2nc3c(Cl)cccc3cc2[C@@H](Nc2ncnc3cccnc23)C(F)(F)F)c1 [Seletalisib] (10 µM),inactive: 0,inactive: 0,inactive: 0,inactive: 0,inactive: 0,inactive: 0,inactive: 0,inactive: 0,0,0
CC[C@@H](N)CNc1ccnc(-c2cc(-c3cnn(C)c3)ccc2O)n1 (2.5 µM),inactive: 0,inactive: 0,inactive: 0,inactive: 0,inactive: 0,inactive: 0,inactive: 0,inactive: 0,0,0
O=C(CCCCCn1cc(Nc2ncc(Cl)c(Nc3ccc(Cl)cc3)n2)cn1)NO (2.5 µM),inactive: 0,inactive: 0,inactive: 0,inactive: 0,inactive: 0,inactive: 0,inactive: 0,inactive: 0,0,0
COc1ccc2c(c1)c(C1=C(c3c[nH]c4ccccc34)C(=O)NC1=O)cn2CCCN(C)C (10 µM),inactive: 0,inactive: 0,inactive: 0,inactive: 0,inactive: 0,inactive: 0,inactive: 0,inactive: 0,0,0
COC(=O)[C@@]1(C)CC[C@]2(C(=O)O)CC[C@]3(C)C(=CC[C@@H]4[C@@]5(C)C[C@H](O)[C@H](O[C@@H]6OC[C@@H](O[C@@H]7O[C@H](CO)[C@@H](O)[C@H](O)[C@H]7O)[C@H](O)[C@H]6O)[C@@](C)(CO)[C@@H]5CC[C@]43C)[C@@H]2C1 [Esculentoside A] (10 µM),inactive: 0,inactive: 0,inactive: 0,inactive: 0,inactive: 0,inactive: 0,inactive: 0,inactive: 0,0,0
COc1ccc(CN2C3CC2CN(c2ccc(-c4cc(OCC(C)(C)O)cn5ncc(C#N)c45)cn2)C3)cn1 [Selpercatinib] (10 µM),inactive: 0,inactive: 0,inactive: 0,inactive: 0,inactive: 0,inactive: 0,inactive: 0,inactive: 0,0,0
COc1ccccc1/C=C1\C(=O)Nc2ccccc21 (10 µM),inactive: 0,inactive: 0,inactive: 0,inactive: 0,inactive: 0,inactive: 0,inactive: 0,inactive: 0,0,0
Cc1cc2ncc(-c3ccccc3)nc2cc1C (10 µM),inactive: 0,inactive: 0,inactive: 0,inactive: 0,inactive: 0,inactive: 0,inactive: 0,inactive: 0,0,0
CC(C)n1cnc2c(Nc3cccc(Cl)c3)nc(NCCO)nc21 (10 µM),inactive: 0,inactive: 0,inactive: 0,inactive: 0,inactive: 0,inactive: 0,inactive: 0,inactive: 0,0,0
COc1ccc(-n2c(C)c([N+](=O)[O-])c3ccc(O)cc32)cc1 (10 µM),inactive: 0,inactive: 0,inactive: 0,inactive: 0,inactive: 0,inactive: 0,inactive: 0,inactive: 0,0,0
COC1(C(=O)N[C@@H](C)c2ccc(-n3cc(F)cn3)nc2)CCC(c2nc(C)cc(Nc3cc(C)[nH]n3)n2)CC1 (stereo partly drawn) [trans-Pralsetinib] (2.5 µM),inactive: 0,inactive: 0,inactive: 0,inactive: 0,inactive: 0,inactive: 0,inactive: 0,inactive: 0,0,0

# Single records, from the list above. Order of values: kinase-Nluc reporter destabilization hit call (STK38)	kinase-Nluc reporter destabilization hit call (SYK)	kinase-Nluc reporter destabilization hit call (TEC)	kinase-Nluc reporter destabilization hit call (TYK2)	kinase-Nluc reporter destabilization hit call (ULK3)	kinase-Nluc reporter destabilization hit call (YES1)	kinase-Nluc reporter destabilization hit call (ZAK)	kinase-Nluc reporter destabilization hit call (ZAP70)	number of time points (ABL1)	number of time points (AKT1)
# Nc1cccc(S(=O)(=O)N2CCCN(S(=O)(=O)c3ccc4c(c3)OCCO4)CC2)c1 (10 µM) is listed with inactive: 0	inactive: 0	inactive: 0	inactive: 0	inactive: 0	inactive: 0	inactive: 0	inactive: 0	0	0
# CC(C)n1cnc2c(Nc3cccc(Cl)c3)nc(NCCO)nc21 (10 µM) is listed with inactive: 0	inactive: 0	inactive: 0	inactive: 0	inactive: 0	inactive: 0	inactive: 0	inactive: 0	0	0

# Reference: the supplement of paper PMC12823440, “Inhibitors supercharge kinase turnover through native proteolytic circuits” (Nature, 2025)
